In PMC7819943, “Rice protein-binding microarrays: a tool to detect cis-acting elements near promoter regions in rice”:
This is one part of the list.

Protein sequences, listed by entry. Tags and fused reporters are not part of them.
UniProt Q0JBA9, entry or part of it: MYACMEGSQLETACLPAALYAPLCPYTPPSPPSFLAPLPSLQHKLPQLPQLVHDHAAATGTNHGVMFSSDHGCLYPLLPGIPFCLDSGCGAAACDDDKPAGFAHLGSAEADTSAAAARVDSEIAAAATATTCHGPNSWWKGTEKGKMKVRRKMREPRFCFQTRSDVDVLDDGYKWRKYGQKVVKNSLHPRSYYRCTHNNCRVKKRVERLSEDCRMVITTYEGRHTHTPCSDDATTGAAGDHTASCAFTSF

Molecular target: OsWRKY34 (Oryza sativa, UniProt Q0JBA9 1-250)
Assay: protein-binding microarray (RPBM); PBS, 2% BSA, 51.3 ng/ul salmon testes DNA, 50 uM zinc acetate, 200 nM TF, 25 C, 1 h; high values mean tight binding
Settings: protein: recombinant; tags: N-terminal polyhistidine and DsRed monomer fusion (pET32a); label: CyDye5-dUTP incorporated in the synthesized complementary strand; 3' TTTTT single-stranded linker to array surface; dsDNA, one strand shown
Method in brief: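 Transcription factors, each fused N-terminally to a polyhistidine tag and DsRed, were expressed in E. coli BL21-CodonPlus and purified on Ni–NTA. A custom Agilent array was made double-stranded by primer extension with Cy5-dUTP and blocked with 2% BSA. It was incubated with 200 nM protein in PBS, 2% BSA, salmon testes DNA and 50 µM zinc acetate at 25 °C for 1 h, then washed. The binding signal is per-feature fluorescence intensity (arbitrary units) read on an Axon 4000B scanner.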

Row | Sequence | binding signal
1 | GCGCCATAATATCATCGGTCGCGAGCTGAGCTCTCCCTCTCGGAGTCACCTAGTGCAG | 8430 fluorescence intensity (a.u.)
2 | GGGTTGTTGTAGAATCTTGTGGATCCACTTGGCAGGGTCTCGGAGTCACCTAGTGCAG | 10000 fluorescence intensity (a.u.)
3 | TCACCATATGAATGCATGCCGTGATCCAACTATCCTTCATCGGAGTCACCTAGTGCAG | 9590 fluorescence intensity (a.u.)
4 | GGGCTGTTGTGTGTGTGTTTTGCGACGTGCCGTGCTGGGCCGGAGTCACCTAGTGCAG | 8290 fluorescence intensity (a.u.)
5 | AGCGGAACCCTAGCTAGCTTCCTTGTGGTTTTGAGGGTTTCGGAGTCACCTAGTGCAG | 10500 fluorescence intensity (a.u.)
6 | TTTCCGCAGCAACGCACCGGGTTTCATCTAGTTTATTATTCGGAGTCACCTAGTGCAG | 8450 fluorescence intensity (a.u.)
7 | GTGCGCGACCGCCTCGGCCCGACCTCGCCTGCCTCTTCGTCGGAGTCACCTAGTGCAG | 9400 fluorescence intensity (a.u.)
8 | GAGGGTTTATTGTAGTCGTGGTTTTCACTTAGTTTTCTTTCGGAGTCACCTAGTGCAG | 11400 fluorescence intensity (a.u.)
9 | GTGGGGTTCATGGAGTGGTTGAACATTAGCAAACATCTTCCGGAGTCACCTAGTGCAG | 8260 fluorescence intensity (a.u.)
10 | AATACTACTCCTGATGAGTTTACATCCGTCGGTCTTTTTTCGGAGTCACCTAGTGCAG | 9740 fluorescence intensity (a.u.)
11 | GGCTGTCCCACTTTAGGTTATTTGTCGTCCGGTCTGAAATCGGAGTCACCTAGTGCAG | 10100 fluorescence intensity (a.u.)
12 | TGCACACCCGGCCTACCAGCCTCGCTCCCTTCCTCGCCGTCGGAGTCACCTAGTGCAG | 8510 fluorescence intensity (a.u.)
13 | AAATTGTACTACGAAAAAGTCAAACTACTTATAATATGAACGGAGTCACCTAGTGCAG | 9800 fluorescence intensity (a.u.)
14 | TCTCAGCCGTCGCCCCTCACACACGCACACACACTCTCTCCGGAGTCACCTAGTGCAG | 9280 fluorescence intensity (a.u.)
15 | GAAGACCCGATTGTTCCTTTCCTTCCAGATTGTCCACGCTCGGAGTCACCTAGTGCAG | 8310 fluorescence intensity (a.u.)
16 | TCACCACCACCATCACAACCCAATCCCAATCCAAACCACCCGGAGTCACCTAGTGCAG | 8530 fluorescence intensity (a.u.)
17 | TATTTTTGACCAGAGGGAGGGTTTTTTTTTTTTTGAGAGACGGAGTCACCTAGTGCAG | 10300 fluorescence intensity (a.u.)
18 | TTAAGGGGTATTTCTGTCTTTTCACGTTGTATTCATCTCACGGAGTCACCTAGTGCAG | 10800 fluorescence intensity (a.u.)
19 | GTAGATTTTACTCTGTTTTGTTGGTTGGATGGTCCAGTAACGGAGTCACCTAGTGCAG | 8140 fluorescence intensity (a.u.)
20 | TTGTCTTTTCTCTGCCTTGATCCAGTCCATTTCTTACAAACGGAGTCACCTAGTGCAG | 12200 fluorescence intensity (a.u.)
21 | GCCACGTTCTCTTCCCGCTCCGACGAATTCTGCTCTCCATCGGAGTCACCTAGTGCAG | 15100 fluorescence intensity (a.u.)
22 | GTTTAAGCTCTTCATCGGCGTTTTTTATGTTTGAAGTCATCGGAGTCACCTAGTGCAG | 12500 fluorescence intensity (a.u.)
23 | TGTTAGAGCACAACACATACACCATCACTTTTACTCTCTTCGGAGTCACCTAGTGCAG | 9800 fluorescence intensity (a.u.)
24 | GATCCCTCTATCCAGCATCTGAGGGGAATATTCCCCTCCGCGGAGTCACCTAGTGCAG | 8270 fluorescence intensity (a.u.)
25 | CGTGGCCCATCTCCAATTCTCCAGTTGCTTCCTTTTCGTTCGGAGTCACCTAGTGCAG | 12600 fluorescence intensity (a.u.)
26 | AGAATGTTATACGGCGCTCGATCTATTATTCCGCACTCTACGGAGTCACCTAGTGCAG | 8130 fluorescence intensity (a.u.)
27 | ACATCTTATTTCCCTGGGTGGGGAGATTCTAGTTAAAATTCGGAGTCACCTAGTGCAG | 19000 fluorescence intensity (a.u.)

Row | Sequence | binding signal
28 | TAGCTAGCAGCACATTTTTGCATGCACCTGTAGCATATTACGGAGTCACCTAGTGCAG | 8570 fluorescence intensity (a.u.)
29 | CCGCGCCGCCGGTCACATCCAACCCAACCCAAACTGCCAGCGGAGTCACCTAGTGCAG | 9390 fluorescence intensity (a.u.)
30 | CTGACTCGTTCTTGCTCTTGTTGCAATCTTCCAAACAGTACGGAGTCACCTAGTGCAG | 8770 fluorescence intensity (a.u.)
31 | ATGTGATGACATGATGACACGATCTGAACCTACGATTTCCCGGAGTCACCTAGTGCAG | 8240 fluorescence intensity (a.u.)
32 | GTACTAAGTGGCTCGCGTCGATTCCCTTGCAACGCTGCAACGGAGTCACCTAGTGCAG | 8690 fluorescence intensity (a.u.)
33 | TCCCTCTCGCTCGCATTGCCATCCACCAAAGCCAAGAGCACGGAGTCACCTAGTGCAG | 8110 fluorescence intensity (a.u.)
34 | CGTGCTCGTTTACTCCTCCGTCGATTTCCACTTTCGCCAACGGAGTCACCTAGTGCAG | 8120 fluorescence intensity (a.u.)
35 | TTTAGTACGTGTTTGACCATTCGTCTTATTAAAAAAATTTCGGAGTCACCTAGTGCAG | 9130 fluorescence intensity (a.u.)
36 | TGGTCCCATGTTGCAGTCCTTTTTAGTGTGACTGCATTCCCGGAGTCACCTAGTGCAG | 10200 fluorescence intensity (a.u.)
37 | GTGGGTTTGAGGGCGGCCTCCTCCCTCTAGCTGGGAGGGGCGGAGTCACCTAGTGCAG | 9820 fluorescence intensity (a.u.)
38 | ACTGTGGTGATGGTGTCTTTTGTTTGTCTTCTGAATTCAGCGGAGTCACCTAGTGCAG | 12600 fluorescence intensity (a.u.)
39 | AGCAGCTTTTTTTTTTCAATGCACGGTATATTCATCAGCTCGGAGTCACCTAGTGCAG | 9880 fluorescence intensity (a.u.)
40 | ATCTCGTATTGGGTTCTTATATGGACTTTTTTCTCAATATCGGAGTCACCTAGTGCAG | 10300 fluorescence intensity (a.u.)
41 | ACGCCATTGTTTACGGCCAGTTAGCAACACATCGCAATCTCGGAGTCACCTAGTGCAG | 8680 fluorescence intensity (a.u.)
42 | AGCTGGTTGGCGATTTTACTTTACAGTTCACACTTTTATTCGGAGTCACCTAGTGCAG | 9160 fluorescence intensity (a.u.)
43 | GTACTGTCACTTTGTCTTCCCCTACGCCACTTCCCACTGACGGAGTCACCTAGTGCAG | 10600 fluorescence intensity (a.u.)
44 | ACATCGTCGTCGCCACCACCCACGCCAACCTCGCATCTCTCGGAGTCACCTAGTGCAG | 11300 fluorescence intensity (a.u.)
45 | ATGCCATTTTTCCCGTTTGTTGCAATTGCAAAACATTTTTCGGAGTCACCTAGTGCAG | 8580 fluorescence intensity (a.u.)
46 | ATACGCTTCCTGTTACTTTCATATGTAGTTACTCTTTGTTCGGAGTCACCTAGTGCAG | 10400 fluorescence intensity (a.u.)
47 | CAACACGACGACCACCACCACATTTGTCCCAACACACCACCGGAGTCACCTAGTGCAG | 9280 fluorescence intensity (a.u.)
48 | GTGGTGGGTATGTTGGCGTTATGATTCGATGCCCCTGAACCGGAGTCACCTAGTGCAG | 10400 fluorescence intensity (a.u.)
49 | CGCAATCACCGTCCACCTGCCTCGCCGCGCGCCACGCGCGCGGAGTCACCTAGTGCAG | 10500 fluorescence intensity (a.u.)
50 | ACGTTAGTTAAAAAGTCAACGGCGTCATCCATTAAAATACCGGAGTCACCTAGTGCAG | 8900 fluorescence intensity (a.u.)
51 | TCCACTGCCGTTCCTGTCGATCCGATTCACTTCAGCCTCACGGAGTCACCTAGTGCAG | 10600 fluorescence intensity (a.u.)
52 | TCAGGAGGGGTGGAGCTGGAGCTGGAGCTGTGCCAAACAGCGGAGTCACCTAGTGCAG | 10600 fluorescence intensity (a.u.)
53 | CTCTCTCCGTACTCGCGAAGCCACGCTCCGGGCCGTTGTCCGGAGTCACCTAGTGCAG | 8960 fluorescence intensity (a.u.)
54 | ACCTCGGTAATAAAAGATGATCTAACGTAAAATTTATTATCGGAGTCACCTAGTGCAG | 23300 fluorescence intensity (a.u.)

Shown with tabs: entries from further up.
Row	Sequence	binding signal
18	TTAAGGGGTATTTCTGTCTTTTCACGTTGTATTCATCTCACGGAGTCACCTAGTGCAG	10800 fluorescence intensity (a.u.)
19	GTAGATTTTACTCTGTTTTGTTGGTTGGATGGTCCAGTAACGGAGTCACCTAGTGCAG	8140 fluorescence intensity (a.u.)
20	TTGTCTTTTCTCTGCCTTGATCCAGTCCATTTCTTACAAACGGAGTCACCTAGTGCAG	12200 fluorescence intensity (a.u.)

In a second layout: entries from further up
Row	Sequence	binding signal
40	ATCTCGTATTGGGTTCTTATATGGACTTTTTTCTCAATATCGGAGTCACCTAGTGCAG	10300 fluorescence intensity (a.u.)
43	GTACTGTCACTTTGTCTTCCCCTACGCCACTTCCCACTGACGGAGTCACCTAGTGCAG	10600 fluorescence intensity (a.u.)
